Test results taken from article PMC13101370.
No constants are given. Whether binding was seen depends on the method and setting. Binding seen in cells or lysates may run through a third protein. Some results given as binding are weak or reduced against the parent protein; the word gives no strength.

Amino acid sequences for entries named in this document (tags omitted).
UniProt Q7Z434: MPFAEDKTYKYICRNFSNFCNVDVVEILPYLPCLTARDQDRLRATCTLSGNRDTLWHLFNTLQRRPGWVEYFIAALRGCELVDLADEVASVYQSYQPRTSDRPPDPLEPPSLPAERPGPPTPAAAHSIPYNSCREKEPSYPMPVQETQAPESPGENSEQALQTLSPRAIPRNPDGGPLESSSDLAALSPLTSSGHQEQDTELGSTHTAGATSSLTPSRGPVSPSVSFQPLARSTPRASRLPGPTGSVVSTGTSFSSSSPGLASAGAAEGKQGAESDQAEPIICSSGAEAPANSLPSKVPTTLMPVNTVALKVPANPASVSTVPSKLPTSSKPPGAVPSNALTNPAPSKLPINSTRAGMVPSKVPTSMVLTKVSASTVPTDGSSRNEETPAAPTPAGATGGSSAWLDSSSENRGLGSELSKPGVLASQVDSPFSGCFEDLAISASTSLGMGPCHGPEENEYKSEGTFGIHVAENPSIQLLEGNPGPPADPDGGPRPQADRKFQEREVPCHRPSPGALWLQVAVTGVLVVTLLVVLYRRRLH
UniProt Q14258: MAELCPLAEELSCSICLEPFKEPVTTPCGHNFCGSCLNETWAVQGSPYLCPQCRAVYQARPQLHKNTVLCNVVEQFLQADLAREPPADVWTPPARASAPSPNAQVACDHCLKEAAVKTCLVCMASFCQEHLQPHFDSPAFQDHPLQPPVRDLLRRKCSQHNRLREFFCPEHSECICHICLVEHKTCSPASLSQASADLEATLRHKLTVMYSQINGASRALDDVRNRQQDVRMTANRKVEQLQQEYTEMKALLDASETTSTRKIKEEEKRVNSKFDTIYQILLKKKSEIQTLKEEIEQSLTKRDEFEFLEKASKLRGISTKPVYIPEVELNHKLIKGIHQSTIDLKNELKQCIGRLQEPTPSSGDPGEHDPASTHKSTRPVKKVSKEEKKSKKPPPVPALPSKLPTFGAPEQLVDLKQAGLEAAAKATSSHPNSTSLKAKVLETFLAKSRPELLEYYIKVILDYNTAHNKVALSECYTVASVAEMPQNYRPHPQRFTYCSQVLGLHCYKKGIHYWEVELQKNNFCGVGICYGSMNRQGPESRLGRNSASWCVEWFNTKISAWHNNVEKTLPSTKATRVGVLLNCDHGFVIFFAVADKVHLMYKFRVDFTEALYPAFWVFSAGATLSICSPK

Target: Mitochondrial antiviral signaling protein (MAVS) (UniProt Q7Z434)
Assay: co-IP; 293 T cells transfected with various combinations of plasmids and treated with or without FyHj-SER for 24 h; immunoblot of the immunoprecipitated samples; bait and antibody not told

- binding: binds
Substance: Tripartite motif-containing protein 25 (TRIM25) (from UniProt Q14258 1-630) (enzyme)
